Results are given in words; binding and its absence hold for the method and conditions named. Binding seen in cells or lysates may run through a third protein. Here binding means that the protein was enriched with, or labelled near, the bait; the list need not be complete. Blank lines part the entries; values can stand above or below the molecule they belong to.
Legend:
[1] = biological target: Ded1 (S. cerevisiae (endogenous in BY4742)) (UniProt P06634); assay: affinity purification with mass spectrometry; selected sucrose gradient fractions (4, 6, 7) of yeast extract purified by Ded1-IgG Sepharose pull-down, nanoLC-MS/MS
[2] = biological target: Ded1 (S. cerevisiae (endogenous in BY4742)), P06634; assay: as above; details: remark: other sources report otherwise

By UniProt entry, the sequences of proteins in these tests, tags left out.
UniProt P06634: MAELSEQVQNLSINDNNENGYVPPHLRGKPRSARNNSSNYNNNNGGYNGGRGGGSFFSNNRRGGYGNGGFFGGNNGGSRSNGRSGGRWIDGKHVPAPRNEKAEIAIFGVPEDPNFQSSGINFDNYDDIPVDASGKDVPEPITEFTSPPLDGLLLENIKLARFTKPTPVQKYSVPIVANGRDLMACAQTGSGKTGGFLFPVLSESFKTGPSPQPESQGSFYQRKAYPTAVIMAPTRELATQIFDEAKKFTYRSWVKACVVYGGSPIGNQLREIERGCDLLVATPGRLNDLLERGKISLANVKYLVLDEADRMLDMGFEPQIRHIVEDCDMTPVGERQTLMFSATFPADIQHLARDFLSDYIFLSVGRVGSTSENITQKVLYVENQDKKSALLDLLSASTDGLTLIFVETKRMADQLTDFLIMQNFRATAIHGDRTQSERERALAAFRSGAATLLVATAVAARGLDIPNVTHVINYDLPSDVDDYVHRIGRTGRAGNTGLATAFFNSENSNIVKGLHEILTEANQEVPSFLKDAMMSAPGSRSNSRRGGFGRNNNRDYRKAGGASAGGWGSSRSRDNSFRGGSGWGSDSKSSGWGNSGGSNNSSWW
UniProt P04147: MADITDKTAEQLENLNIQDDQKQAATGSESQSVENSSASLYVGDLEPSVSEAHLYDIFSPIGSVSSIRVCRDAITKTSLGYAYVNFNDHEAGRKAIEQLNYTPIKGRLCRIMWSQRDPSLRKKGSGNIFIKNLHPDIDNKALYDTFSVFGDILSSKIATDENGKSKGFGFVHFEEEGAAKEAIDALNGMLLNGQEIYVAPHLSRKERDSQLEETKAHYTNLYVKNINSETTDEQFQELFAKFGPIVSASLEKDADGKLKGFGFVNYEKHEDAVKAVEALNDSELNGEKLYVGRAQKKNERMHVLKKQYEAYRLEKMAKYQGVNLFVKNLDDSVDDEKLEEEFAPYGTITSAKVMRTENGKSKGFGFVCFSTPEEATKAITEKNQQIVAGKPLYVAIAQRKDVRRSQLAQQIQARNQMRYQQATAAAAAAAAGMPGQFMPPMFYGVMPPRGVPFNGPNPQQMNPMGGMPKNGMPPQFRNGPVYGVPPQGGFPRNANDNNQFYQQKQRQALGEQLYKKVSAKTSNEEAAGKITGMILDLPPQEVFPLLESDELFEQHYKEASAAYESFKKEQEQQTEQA

binding [1]: binds
Molecule: Pab1 (from UniProt P04147 1-577)

binding [2]: binds
B1: eIF4E with an amino-terminal His6 tag (natural protein, S. cerevisiae, UniProt P07260 1-213, looked up)
chain: MSVEEVSKKFEENVSVDDTTATPKTVLSDSAHFDVKHPLNTKWTLWYTKPAVDKSESWSDLLRPVTSFQTVEEFWAIIQNIPEPHELPLKSDYHVFRNDVRPEWEDEANAKGGKWSFQLRGKGADIDELWLRTLLAVIGETIDEDDSQINGVVLSIRKGGNKFALWTKSEDKEPLLRIGGKFKQVLKLTDDGHLEFFPHSSANGRHPQPSITL
notes: eIF4E (CDC33) of S. cerevisiae cloned into the NdeI-BamHI sites of pET15b; also called CDC33; source: E. coli (pET15b), purified on nickel-agarose
